Counter-ions that a name gives are not always drawn. The list shows a part of the results. The calls rarely recur for the same compound in another form.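 Kinases, fused to nanoluciferase, were expressed in K562 cells; luminescence was measured every 4 h from 2 to 18 h as percent of control (DMSO = 100%, positive control = 0%). A time point is decreased if signal falls significantly (2 sigma). Hits were called by the authors by a rule that is not shown; the count of time points alone does not decide it.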
How the values were obtained:
Assay in all cases: number of time points (of 5) at which kinase-Nluc abundance scored as decreased, DMSO-normalised (count); higher = more persistent destabilization
Details in all cases: K562; 2-18 h
LMTK2 = LMTK2 (UniProt Q8IWU2)
LYN = LYN (UniProt P07948)
MAP2K1 = MAP2K1 (UniProt Q02750)
MAP2K2 = MAP2K2 (UniProt P36507)
MAP4K2 = MAP4K2 (UniProt Q12851)
MAPK1 = MAPK1 (UniProt P28482)
MAPK4 = MAPK4 (UniProt P31152)
MAPKAPK2 = MAPKAPK2 (UniProt P49137)
MKNK1 = MKNK1 (UniProt Q9BUB5)
NTRK2 = NTRK2 (UniProt Q16620)

Chains of the proteins cited; added tags and fusions are not shown. Lines headed by an entry give the natural chain unless they say otherwise; changes in a name come on top.
UniProt Q8IWU2: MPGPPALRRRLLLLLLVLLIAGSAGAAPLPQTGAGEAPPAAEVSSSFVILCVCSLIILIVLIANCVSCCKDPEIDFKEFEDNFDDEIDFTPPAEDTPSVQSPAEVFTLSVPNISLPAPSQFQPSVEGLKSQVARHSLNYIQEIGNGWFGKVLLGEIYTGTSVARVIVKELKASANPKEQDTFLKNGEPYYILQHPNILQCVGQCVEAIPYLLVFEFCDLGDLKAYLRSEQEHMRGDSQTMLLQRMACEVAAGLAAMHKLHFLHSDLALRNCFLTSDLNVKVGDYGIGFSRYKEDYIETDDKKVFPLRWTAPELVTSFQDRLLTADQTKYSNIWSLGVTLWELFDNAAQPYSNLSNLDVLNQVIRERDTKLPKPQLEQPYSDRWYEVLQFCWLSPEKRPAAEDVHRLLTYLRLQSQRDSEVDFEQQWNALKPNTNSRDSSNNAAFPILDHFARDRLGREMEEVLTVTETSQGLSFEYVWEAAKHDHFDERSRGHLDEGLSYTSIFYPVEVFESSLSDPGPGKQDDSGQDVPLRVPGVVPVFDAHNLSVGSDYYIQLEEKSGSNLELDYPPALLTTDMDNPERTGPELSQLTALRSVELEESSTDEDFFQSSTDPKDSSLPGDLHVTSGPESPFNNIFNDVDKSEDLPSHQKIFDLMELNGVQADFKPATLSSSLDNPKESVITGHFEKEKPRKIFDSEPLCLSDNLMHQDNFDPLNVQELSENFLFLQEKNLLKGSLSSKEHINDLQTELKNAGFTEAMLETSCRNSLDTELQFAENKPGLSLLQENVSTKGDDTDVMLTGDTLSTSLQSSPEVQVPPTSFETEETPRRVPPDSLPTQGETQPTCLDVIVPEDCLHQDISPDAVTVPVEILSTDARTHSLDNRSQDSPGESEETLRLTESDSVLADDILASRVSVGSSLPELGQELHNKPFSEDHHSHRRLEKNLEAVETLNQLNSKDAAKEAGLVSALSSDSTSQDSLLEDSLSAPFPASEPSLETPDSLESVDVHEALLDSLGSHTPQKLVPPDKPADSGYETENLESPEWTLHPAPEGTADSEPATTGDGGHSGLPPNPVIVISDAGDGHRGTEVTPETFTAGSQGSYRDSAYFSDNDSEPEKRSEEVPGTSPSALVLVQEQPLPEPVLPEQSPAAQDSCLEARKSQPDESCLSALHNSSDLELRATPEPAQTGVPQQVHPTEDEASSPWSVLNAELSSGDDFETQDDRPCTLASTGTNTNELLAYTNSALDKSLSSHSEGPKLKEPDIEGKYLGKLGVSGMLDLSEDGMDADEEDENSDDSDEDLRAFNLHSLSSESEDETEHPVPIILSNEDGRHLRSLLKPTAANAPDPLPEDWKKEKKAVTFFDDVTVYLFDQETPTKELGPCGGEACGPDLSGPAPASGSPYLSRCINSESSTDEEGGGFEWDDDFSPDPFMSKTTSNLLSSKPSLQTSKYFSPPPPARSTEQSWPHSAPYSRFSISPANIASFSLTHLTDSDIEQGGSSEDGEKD
UniProt P07948: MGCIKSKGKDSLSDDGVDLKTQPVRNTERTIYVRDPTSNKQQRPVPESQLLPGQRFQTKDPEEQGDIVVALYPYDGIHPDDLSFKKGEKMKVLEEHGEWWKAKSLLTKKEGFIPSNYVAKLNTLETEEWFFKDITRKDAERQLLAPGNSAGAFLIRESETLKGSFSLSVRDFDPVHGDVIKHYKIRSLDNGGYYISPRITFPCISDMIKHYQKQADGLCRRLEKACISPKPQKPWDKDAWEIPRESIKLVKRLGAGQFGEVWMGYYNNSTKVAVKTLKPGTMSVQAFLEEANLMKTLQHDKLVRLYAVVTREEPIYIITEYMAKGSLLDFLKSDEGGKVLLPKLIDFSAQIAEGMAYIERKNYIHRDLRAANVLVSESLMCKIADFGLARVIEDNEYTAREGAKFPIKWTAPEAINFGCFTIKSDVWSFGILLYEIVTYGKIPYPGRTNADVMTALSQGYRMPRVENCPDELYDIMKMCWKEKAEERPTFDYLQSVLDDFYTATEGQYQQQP
UniProt Q12851: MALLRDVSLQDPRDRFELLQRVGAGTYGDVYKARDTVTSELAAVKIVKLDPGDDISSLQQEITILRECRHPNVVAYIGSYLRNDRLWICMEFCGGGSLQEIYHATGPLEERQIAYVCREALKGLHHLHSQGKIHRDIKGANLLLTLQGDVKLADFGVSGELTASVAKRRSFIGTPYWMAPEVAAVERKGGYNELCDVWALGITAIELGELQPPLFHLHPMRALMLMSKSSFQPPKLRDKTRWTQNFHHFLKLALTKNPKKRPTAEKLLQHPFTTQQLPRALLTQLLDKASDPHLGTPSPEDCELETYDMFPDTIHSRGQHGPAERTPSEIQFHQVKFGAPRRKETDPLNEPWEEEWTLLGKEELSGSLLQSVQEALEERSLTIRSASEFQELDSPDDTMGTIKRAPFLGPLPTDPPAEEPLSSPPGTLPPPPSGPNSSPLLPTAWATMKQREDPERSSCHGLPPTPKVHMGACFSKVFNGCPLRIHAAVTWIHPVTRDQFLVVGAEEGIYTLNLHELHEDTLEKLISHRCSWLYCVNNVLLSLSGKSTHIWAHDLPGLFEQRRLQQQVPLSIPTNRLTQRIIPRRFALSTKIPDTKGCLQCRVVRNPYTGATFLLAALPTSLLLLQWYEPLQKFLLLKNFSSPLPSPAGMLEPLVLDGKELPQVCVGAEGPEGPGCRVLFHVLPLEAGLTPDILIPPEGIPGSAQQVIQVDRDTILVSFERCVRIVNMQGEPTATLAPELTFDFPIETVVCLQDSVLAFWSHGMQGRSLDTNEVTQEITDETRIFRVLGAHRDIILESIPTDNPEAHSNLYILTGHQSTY
UniProt P28482, whole entry: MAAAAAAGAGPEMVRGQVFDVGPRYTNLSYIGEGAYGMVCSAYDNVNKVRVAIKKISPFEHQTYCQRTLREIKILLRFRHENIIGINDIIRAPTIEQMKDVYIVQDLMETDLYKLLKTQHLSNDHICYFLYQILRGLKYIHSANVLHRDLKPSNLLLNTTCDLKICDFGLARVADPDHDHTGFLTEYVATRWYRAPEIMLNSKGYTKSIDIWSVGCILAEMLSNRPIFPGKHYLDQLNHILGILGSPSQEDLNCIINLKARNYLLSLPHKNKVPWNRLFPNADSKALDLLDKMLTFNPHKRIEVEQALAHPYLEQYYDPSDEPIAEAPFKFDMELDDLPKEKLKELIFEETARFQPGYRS
UniProt P31152, whole entry: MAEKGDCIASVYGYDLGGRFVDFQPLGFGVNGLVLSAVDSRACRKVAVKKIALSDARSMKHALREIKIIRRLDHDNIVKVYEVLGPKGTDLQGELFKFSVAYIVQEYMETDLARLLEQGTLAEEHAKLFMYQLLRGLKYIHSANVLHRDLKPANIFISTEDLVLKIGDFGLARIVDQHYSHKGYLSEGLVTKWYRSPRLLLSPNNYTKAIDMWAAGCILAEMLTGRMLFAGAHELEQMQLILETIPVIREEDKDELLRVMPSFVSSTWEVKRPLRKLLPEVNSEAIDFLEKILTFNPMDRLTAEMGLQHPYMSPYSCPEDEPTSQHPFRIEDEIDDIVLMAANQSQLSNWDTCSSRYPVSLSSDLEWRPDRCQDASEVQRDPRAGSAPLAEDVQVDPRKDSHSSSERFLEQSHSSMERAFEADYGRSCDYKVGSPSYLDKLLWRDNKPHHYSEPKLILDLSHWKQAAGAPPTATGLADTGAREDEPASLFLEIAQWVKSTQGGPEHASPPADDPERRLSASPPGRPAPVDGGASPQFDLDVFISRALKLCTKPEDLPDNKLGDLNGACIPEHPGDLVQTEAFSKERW
UniProt P49137, whole entry, looked up: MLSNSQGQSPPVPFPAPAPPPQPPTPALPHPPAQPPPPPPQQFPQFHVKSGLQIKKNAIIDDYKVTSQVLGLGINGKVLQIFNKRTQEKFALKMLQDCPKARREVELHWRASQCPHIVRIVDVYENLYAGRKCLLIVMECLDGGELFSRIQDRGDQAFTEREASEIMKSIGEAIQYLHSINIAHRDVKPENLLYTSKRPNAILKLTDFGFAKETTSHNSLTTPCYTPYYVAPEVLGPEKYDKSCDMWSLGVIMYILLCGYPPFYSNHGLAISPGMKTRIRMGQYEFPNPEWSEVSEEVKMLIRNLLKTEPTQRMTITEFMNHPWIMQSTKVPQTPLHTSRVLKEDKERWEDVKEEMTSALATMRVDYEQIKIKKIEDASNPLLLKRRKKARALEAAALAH
UniProt Q9BUB5: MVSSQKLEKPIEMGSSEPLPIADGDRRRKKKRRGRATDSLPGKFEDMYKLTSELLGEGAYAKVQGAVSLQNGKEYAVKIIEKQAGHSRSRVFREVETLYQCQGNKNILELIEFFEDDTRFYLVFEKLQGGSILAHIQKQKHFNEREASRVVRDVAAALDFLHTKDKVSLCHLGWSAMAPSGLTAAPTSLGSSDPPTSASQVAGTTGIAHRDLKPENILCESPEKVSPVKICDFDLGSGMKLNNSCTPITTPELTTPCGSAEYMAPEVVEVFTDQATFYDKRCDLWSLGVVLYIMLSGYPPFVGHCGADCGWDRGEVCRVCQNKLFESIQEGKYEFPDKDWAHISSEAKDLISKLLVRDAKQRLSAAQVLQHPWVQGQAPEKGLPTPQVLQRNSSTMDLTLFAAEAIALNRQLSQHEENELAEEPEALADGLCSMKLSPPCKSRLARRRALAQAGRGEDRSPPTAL
UniProt Q16620, whole entry, looked up: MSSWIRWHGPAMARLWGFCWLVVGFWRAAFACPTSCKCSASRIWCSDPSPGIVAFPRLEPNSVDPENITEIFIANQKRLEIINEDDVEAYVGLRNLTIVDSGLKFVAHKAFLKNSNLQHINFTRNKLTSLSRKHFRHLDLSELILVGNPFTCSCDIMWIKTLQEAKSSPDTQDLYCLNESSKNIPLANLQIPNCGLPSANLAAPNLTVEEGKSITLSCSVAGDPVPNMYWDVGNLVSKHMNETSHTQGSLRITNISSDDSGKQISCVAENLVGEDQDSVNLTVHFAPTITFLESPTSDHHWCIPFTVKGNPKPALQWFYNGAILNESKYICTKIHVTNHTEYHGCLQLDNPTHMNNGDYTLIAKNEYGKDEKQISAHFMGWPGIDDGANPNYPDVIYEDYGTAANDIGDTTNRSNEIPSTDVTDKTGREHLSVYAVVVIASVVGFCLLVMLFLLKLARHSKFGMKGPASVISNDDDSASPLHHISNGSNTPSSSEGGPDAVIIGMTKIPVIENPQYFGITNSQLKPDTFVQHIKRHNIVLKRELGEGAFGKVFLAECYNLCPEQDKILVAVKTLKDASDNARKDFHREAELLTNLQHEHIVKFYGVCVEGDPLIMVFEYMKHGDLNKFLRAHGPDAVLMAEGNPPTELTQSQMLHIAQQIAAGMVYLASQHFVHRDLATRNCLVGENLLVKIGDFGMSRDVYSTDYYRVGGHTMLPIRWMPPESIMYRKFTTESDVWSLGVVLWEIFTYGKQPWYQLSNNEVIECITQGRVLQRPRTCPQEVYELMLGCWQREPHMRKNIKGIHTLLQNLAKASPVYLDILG

Measured: number of time points

Nc1ncnc2c1c(-c1ccc(Oc3ccccc3)cc1)cn2C1CCCC1 (2.5 µM)
4: MKNK1
0: all other assays above

Nc1nc(N)c(N=O)c(OCC2CCCCC2)n1 (10 µM)
0: all assays above

Cc1cc(CS(=O)(=O)c2ccccc2)cc(OCc2ccc(CN3CCC[C@@H]3CO)cc2)c1 [PF-543 (Citrate)] (10 µM)
0: all assays above

Brc1c(Br)c(Br)c2n[nH]nc2c1Br (10 µM)
0: all assays above

CC(C)c1ccc2oc3nc(N)c(C(=O)O)cc3c(=O)c2c1 [Amlexanox] (10 µM)
0: all assays above

CC(C)(C)n1nc(Cc2cccc3ccccc23)c2c(N)ncnc21 (10 µM)
0: all assays above

Cc1[nH]c(/C=C2\C(=O)Nc3ccc(S(=O)(=O)Cc4c(Cl)cccc4Cl)cc32)c(C)c1C(=O)N1CCC[C@@H]1CN1CCCC1 (2.5 µM)
0: all assays above

N#C/C(=C\c1ccc(O)c(O)c1)C(=O)NCCCc1ccccc1 (10 µM)
0: all assays above

CNc1nc(-c2ccc3c(N)n[nH]c3c2)cc(N2C[C@@H](C(=O)NC3CCCCC3)CC[C@H]2C)n1 (10 µM)
1: NTRK2
0: all other assays above

COc1cc(C=C(C#N)C(N)=O)cc(CSc2nc3ccccc3s2)c1O (10 µM)
0: all assays above

COc1cc2ncnc(Nc3cccc(Cl)c3F)c2cc1OC(=O)N1CCN(C)C[C@H]1C [Zorifertinib] (10 µM)
0: all assays above

O=c1oc2c(O)c(O)cc3c(=O)oc4c(O)c(O)cc1c4c23 [Ellagic acid] (10 µM)
0: all assays above

CN(C)CCOc1ccc(-c2nc(-c3ccncc3)c(-c3ccc4c(c3)CC/C4=N\O)[nH]2)cc1 (10 µM)
1: MKNK1
0: all other assays above

O=C([O-])c1ccccc1O.[Na+] [Sodium Salicylate] (10 µM)
0: all assays above

CN(C)Cc1ccc(-c2cnn3c(-c4cccc(NC(=O)c5cccc(C(F)(F)F)c5)c4)ccnc23)cc1 (2.5 µM)
0: all assays above

COc1ccc(NC(=O)N2CCN(c3nc(N)nc4c3cnn4C)[C@@H](C)C2)c(C)c1 (10 µM)
0: all assays above

C=CC(=O)Nc1cccc(Nc2nc(Nc3ccc(OCCOC)cc3)ncc2F)c1 [Spebrutinib] (10 µM)
0: all assays above

COc1cc(OC)cc(-c2cc3cnc(N)nc3nc2NC(=O)NC(C)(C)C)c1 (10 µM)
0: all assays above

Cn1c(=O)c(Oc2ccc(F)cc2F)cc2cnc(NC3CCOCC3)nc21 [R1487 (Hydrochloride)] (10 µM)
0: all assays above

CC(C)=CC/C=C(\C)[C@H]1CC[C@]2(C)[C@@H]1[C@H](O)C[C@@H]1[C@@]3(C)CC[C@H](O[C@@H]4O[C@H](CO)[C@@H](O)[C@H](O)[C@H]4O[C@@H]4O[C@H](CO)[C@@H](O)[C@H](O)[C@H]4O)C(C)(C)[C@@H]3CC[C@]12C [Ginsenoside Rg5] (10 µM)
0: all assays above

N#CC(=Cc1ccc(O)c(O)c1)C(=O)NCc1ccccc1 (mixture of isomers) (10 µM)
0: all assays above

COc1cc2ncnc(Nc3ccc(O)cc3)c2cc1OC (10 µM)
0: all assays above

C[C@H](NC(=O)/C(C#N)=C/c1cccc(Br)n1)c1ccccc1 (2.5 µM)
1: LMTK2
0: all other assays above

COc1cc2c(Nc3ccc(NC(=O)c4ccccc4)cc3)ncnc2cc1OCCCN1CCOCC1 (10 µM)
0: all assays above

COc1cc(Nc2ncc3c(n2)-c2ccc(Cl)cc2C(c2c(F)cccc2OC)=NC3)ccc1C(=O)O [Alisertib] (2.5 µM)
0: all assays above

CCN(CC)CCCCNc1ncc2cc(-c3cc(OC)cc(OC)c3)c(NC(=O)NC(C)(C)C)nc2n1 (10 µM)
0: all assays above

CCN1CCN(c2ccc(Nc3cc(N(C)C(=O)Nc4c(Cl)c(OC)cc(OC)c4Cl)ncn3)cc2)CC1 [Infigratinib] (10 µM)
0: all assays above

Cc1cc(F)c(C(=O)Nc2cccc(-c3nncn3C(C)C)n2)cc1-n1cnc(C2CC2)c1 [Selonsertib] (10 µM)
0: all assays above

C=CC(=O)N1CC[C@H](n2nc(C#Cc3cc(OC)cc(OC)c3)c3c(N)ncnc32)C1 [Futibatinib] (10 µM)
0: all assays above

O=S(=O)(NCCNC/C=C/c1ccc(Br)cc1)c1cccc2cnccc12 [H-89 (dihydrochloride)] (10 µM)
0: all assays above

CCN1C(=O)N(c2c(F)c(OC)cc(OC)c2F)Cc2cnc3[nH]c(CN4CCOCC4)cc3c21 [Pemigatinib] (10 µM)
0: all assays above

COc1ccc2c(C(=O)Nc3ccc(NC(=O)c4nn(C5CCN(C(=O)CC(C)(C)C#N)CC5)c5ccc(F)cc45)cc3Cl)cnn2c1 [Src Inhibitor 3] (2.5 µM)
5: LYN
1: LMTK2 | MAPK4 | MAPKAPK2 | MKNK1
0: all other assays above

CC(C)Oc1cc(Nc2nc(N[C@@H](C)c3ccc(F)cn3)ncc2Cl)n[nH]1 (10 µM)
0: all assays above

CN1CCN(S(=O)(=O)c2ccc(-c3cnc(N)c(C(=O)Nc4cccnc4)n3)cc2)CC1 (10 µM)
0: all assays above

COc1cc2ncnc(Nc3cccc(O)c3)c2cc1OC (10 µM)
4: MKNK1
1: NTRK2
0: all other assays above

CCN(CCCOc1ccc2c(Nc3cc(CC(=O)Nc4cccc(F)c4)[nH]n3)ncnc2c1)CCOP(=O)(O)O [Barasertib] (10 µM)
0: all assays above

O=C(/C=C/c1ccc(O)c(O)c1)c1ccc(O)cc1O [Butein] (10 µM)
2: LMTK2
1: NTRK2
4: MKNK1
0: all other assays above

C=CC(=O)N1CCN(CCCn2c(=O)c(-c3c(Cl)c(OC)cc(OC)c3Cl)cc3cnc(NC)nc32)CC1 (10 µM)
0: all assays above

COc1cc2nc(C)nc(N[C@H](C)c3cc(N)cc(C(F)(F)F)c3)c2cc1O[C@H]1CCOC1 (10 µM)
0: all assays above

Cc1c(NC(=O)c2cc3c(s2)CCCC3)cccc1-c1cn(C)c(=O)c(Nc2ccc([C@@H]3C(=O)N(C)CCN3C)cc2)n1 (10 µM)
0: all assays above

CC(C)(/C=C(\C#N)C(=O)N1CCC[C@@H](n2nc(-c3ccc(Oc4ccccc4)cc3F)c3c(N)ncnc32)C1)N1CCN(C2COC2)CC1 (2.5 µM)
0: all assays above

COc1cc(N2CCC(N)CC2)ccc1Nc1ncc(Cl)c(-c2c[nH]c3ccccc23)n1 (2.5 µM)
0: all assays above

C=CC(=O)Nc1ccc2ncnc(Nc3cccc(Br)c3)c2c1 (10 µM)
4: MKNK1
0: all other assays above

CN(C)C[C@@H]1CCn2cc(c3ccccc32)C2=C(C(=O)NC2=O)c2cn(c3ccccc23)CCO1 [Ruboxistaurin (hydrochloride)] (10 µM)
0: all assays above

CCCn1cnc2c(NCc3ccccc3)nc(NC(CC)CO)nc21 (stereo not given) [Ca2+ channel agonist 1] (2.5 µM)
0: all assays above

4 structures out of the list, sorted by number of heavy atoms, low to high:
CCCn1cnc2c(NCc3ccccc3)nc(NC(CC)CO)nc21 (stereo not given) [Ca2+ channel agonist 1] (2.5 µM)
0: all assays above

COc1cc(N2CCC(N)CC2)ccc1Nc1ncc(Cl)c(-c2c[nH]c3ccccc23)n1 (2.5 µM)
0: all assays above

Cc1c(NC(=O)c2cc3c(s2)CCCC3)cccc1-c1cn(C)c(=O)c(Nc2ccc([C@@H]3C(=O)N(C)CCN3C)cc2)n1 (10 µM)
0: all assays above

CC(C)(/C=C(\C#N)C(=O)N1CCC[C@@H](n2nc(-c3ccc(Oc4ccccc4)cc3F)c3c(N)ncnc32)C1)N1CCN(C2COC2)CC1 (2.5 µM)
0: all assays above

Remaining list, next part

COc1c(Cl)cc2c([nH]c3cnccc32)c1NC(=O)c1cccnc1C (10 µM)
0: all assays above

CCOc1cc2ncc(C#N)c(Nc3ccc(OCc4ccccn4)c(Cl)c3)c2cc1NC(=O)/C=C/CN(C)C [Neratinib] (10 µM)
0: all assays above

Cc1ccc(NC(=O)Nc2nnc(Sc3ncnc4cc(OCCCN5CCOCC5)ccc34)s2)cc1 (10 µM)
0: all assays above

COCc1c(-c2ccc(NC(=O)Nc3cc(C(F)(F)F)ccc3F)c(F)c2)c2c(N)ncnn2c1CN1CCOCC1 (2.5 µM)
0: all assays above

O=c1oc2c(C3OCCCO3)c(O)ccc2c2c1CNCC2 (10 µM)
0: all assays above

Cn1nc(C(C)(C)C)cc1NC(=O)Nc1ccc(Oc2ccncc2)cc1 (10 µM)
2: LMTK2
0: all other assays above
